In PMC3250484, “Molecular Networks in FGF Signaling: Flotillin-1 and Cbl-Associated Protein Compete for the Binding to Fibroblast Growth Factor Receptor Substrate 2” (PLoS ONE, 2012) one finds binding data, which are given here for 3 molecules.

The target of assay [1] is T1, endogenous FRS2 from mouse tissue (brain, liver, kidney) (mouse (endogenous in brain, liver and kidney)) (UniProt Q8C180).
T1 sequence: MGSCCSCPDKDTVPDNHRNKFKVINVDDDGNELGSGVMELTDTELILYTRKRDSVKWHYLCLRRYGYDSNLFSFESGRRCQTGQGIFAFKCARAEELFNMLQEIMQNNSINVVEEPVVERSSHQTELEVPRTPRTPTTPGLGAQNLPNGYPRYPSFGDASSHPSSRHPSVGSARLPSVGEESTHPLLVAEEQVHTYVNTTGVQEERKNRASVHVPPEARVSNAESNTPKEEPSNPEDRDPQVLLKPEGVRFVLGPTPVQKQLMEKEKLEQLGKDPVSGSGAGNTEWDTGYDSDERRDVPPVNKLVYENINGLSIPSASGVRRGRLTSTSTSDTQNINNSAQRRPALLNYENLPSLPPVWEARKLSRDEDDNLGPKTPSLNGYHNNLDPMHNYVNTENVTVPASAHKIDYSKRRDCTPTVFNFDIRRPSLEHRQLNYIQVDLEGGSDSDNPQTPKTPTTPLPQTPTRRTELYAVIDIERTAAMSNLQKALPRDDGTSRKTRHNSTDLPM
In words: co-IP; FRS2 immunoprecipitated from lysates of 25 mg mouse tissue (brain, liver, kidney), antibody-coupled Protein A Dynabeads 16 h at 4°C; blot for flot-1; anti-flag antibody as IgG control.

The target in assay [2] is T2, FL FRS2 GST fusion (UniProt Q8WU20).
T2 sequence: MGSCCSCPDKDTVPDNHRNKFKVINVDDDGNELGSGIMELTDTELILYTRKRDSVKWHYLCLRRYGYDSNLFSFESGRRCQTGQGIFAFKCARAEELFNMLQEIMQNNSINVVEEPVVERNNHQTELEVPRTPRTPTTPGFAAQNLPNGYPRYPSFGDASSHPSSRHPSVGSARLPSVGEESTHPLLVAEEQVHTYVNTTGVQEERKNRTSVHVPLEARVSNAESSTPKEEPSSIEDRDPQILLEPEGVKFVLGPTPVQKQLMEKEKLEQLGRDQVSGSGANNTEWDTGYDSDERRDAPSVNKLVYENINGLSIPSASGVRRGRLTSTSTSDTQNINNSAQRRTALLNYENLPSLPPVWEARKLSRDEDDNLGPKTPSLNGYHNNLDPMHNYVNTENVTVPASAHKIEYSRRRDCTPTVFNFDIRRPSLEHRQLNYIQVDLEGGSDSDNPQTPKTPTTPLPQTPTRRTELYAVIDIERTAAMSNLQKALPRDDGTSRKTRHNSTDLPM
In words: pull-down; GST-FRS2 fusions immobilised on glutathione-sepharose beads, incubated with HeLa cell lysate (50 mM Tris pH 7.4, 0.15 M NaCl, 2 mM EDTA, 1% NP-40) over night at 4°C; blot for endogenous flot-1; only the target purified.

Assay [3] has as its target T2, FL FRS2 GST fusion. In words: pull-down; competition: purified FRS2-GST on beads, lysates of HeLa cells transfected with increasing amounts of FGFR-myc (0.5-2 µg DNA; empty pcDNA3 as control); blot for endogenous flot-1; only the target purified.
Assay [4] concerns the target T3, flotillin-2/reggie-1, two-hybrid fusion (UniProt Q9Z2S9).
T3 sequence: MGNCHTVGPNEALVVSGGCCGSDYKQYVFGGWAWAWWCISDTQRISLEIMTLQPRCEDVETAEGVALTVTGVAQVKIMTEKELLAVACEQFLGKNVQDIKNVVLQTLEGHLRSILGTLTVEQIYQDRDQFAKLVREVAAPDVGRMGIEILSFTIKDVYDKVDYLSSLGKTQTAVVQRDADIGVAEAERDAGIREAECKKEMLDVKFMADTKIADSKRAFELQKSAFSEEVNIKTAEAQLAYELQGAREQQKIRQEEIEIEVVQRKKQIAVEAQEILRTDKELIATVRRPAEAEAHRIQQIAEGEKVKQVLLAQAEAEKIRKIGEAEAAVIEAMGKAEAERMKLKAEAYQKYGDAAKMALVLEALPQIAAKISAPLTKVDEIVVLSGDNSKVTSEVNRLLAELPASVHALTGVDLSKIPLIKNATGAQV
In words: two-hybrid; pairwise cotransformation of bait and prey in yeast AH109 (Matchmaker GAL4 Two-Hybrid System 3); growth of blue colonies on SD/-Ade/-His/-Leu/-Trp/X-α-gal plates, photographed after 3 days.

The target of assay [5] is T4, Full-length (FL) flotillin-1/reggie-2, two-hybrid bait in pGBKT7 (rat) (UniProt Q9Z1E1).
T4 sequence: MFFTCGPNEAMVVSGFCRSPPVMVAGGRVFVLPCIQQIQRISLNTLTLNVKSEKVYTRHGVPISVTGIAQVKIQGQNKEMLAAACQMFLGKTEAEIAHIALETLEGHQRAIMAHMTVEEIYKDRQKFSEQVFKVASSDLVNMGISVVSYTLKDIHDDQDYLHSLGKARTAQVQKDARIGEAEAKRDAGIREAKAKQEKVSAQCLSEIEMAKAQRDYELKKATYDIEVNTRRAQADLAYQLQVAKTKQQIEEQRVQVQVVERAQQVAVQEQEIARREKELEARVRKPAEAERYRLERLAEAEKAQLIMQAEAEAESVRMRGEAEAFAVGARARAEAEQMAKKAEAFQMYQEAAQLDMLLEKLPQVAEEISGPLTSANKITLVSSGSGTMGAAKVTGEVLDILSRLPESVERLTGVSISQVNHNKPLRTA
The description is as above.

Residue numbers refer to the chain shown, from its start. No constants are given. Whether binding was seen depends on the method and setting. For some assays here: In cells and extracts the contact can be indirect. Some entries that bind do so weakly or less than the wild type. For some assays here: Where a sequence is shown, tags or fusion partners need not be part of it.

B1: endogenous flotillin-1 from mouse tissue (brain, liver, kidney) (protein, UniProt O08917 1-428)
chain: T4 sequence with V327I
For the molecule B1, the binding entry in assay [1] is given as “binds”.

B2: endogenous flotillin-1 from HeLa cell lysates (protein, UniProt O75955 1-427)
chain: MFFTCGPNEAMVVSGFCRSPPVMVAGGRVFVLPCIQQIQRISLNTLTLNVKSEKVYTRHGVPISVTGIAQVKIQGQNKEMLAAACQMFLGKTEAEIAHIALETLEGHQRAIMAHMTVEEIYKDRQKFSEQVFKVASSDLVNMGISVVSYTLKDIHDDQDYLHSLGKARTAQVQKDARIGEAEAKRDAGIREAKAKQEKVSAQYLSEIEMAKAQRDYELKKAAYDIEVNTRRAQADLAYQLQVAKTKQQIEEQRVQVQVVERAQQVAVQEQEIARREKELEARVRKPAEAERYKLERLAEAEKSQLIMQAEAEAASVRMRGEAEAFAIGARARAEAEQMAKKAEAFQLYQEAAQLDMLLEKLPQVAEEISGPLTSANKITLVSSGSGTMGAAKVTGEVLDILTRLPESVERLTGVSISQVNHKPLRTA
On to B2, for which the binding result with FL FRS2 GST fusion [2] and in the assay with FL FRS2 GST fusion [3] was “binds” in each case.

B3: FRS2-His (protein)
chain: T2 sequence
As for B3, the binding result in assay [4] is listed as “no binding”; in assay [5], “binds”.
